Test results as given in PubChem BioAssay AID1487 (National Center for Advancing Translational Sciences (NCATS), 2009).
Some of the results follow. These are further read-outs of the screen, such as a control signal, another cell line or another target. No call is given for them. Compounds called inactive in the main read-out are mostly missing here. Potencies come from curve fits of mixed quality, noted in brackets.

Experiment: qHTS Assay for Modulators of Lamin A Splicing
Details: HeLa LMNA splicing GFP/RFP minigene ratio, 48 h
Outline: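 Read-out is the ratio of GFP to DsRed2 object intensity, acquired by 488 nm laser-scanning cytometry on HeLa lamin A-EGFP minigene reporter cells. Compound incubation 48 hrs at 37 °C in Opti-MEM with 2% FBS; DMSO 0.5% final.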

[1] = measured here: RFP viability control channel
[2] = measured here: GFP splicing reporter channel

Structure (SMILES) | AC50 [1] | AC50 [2]
Cc1ccc(C)[n+](CC(=O)N2CCCCC2)c1 | 6.31 µM [rising, partial curve] | –
COc1ccc(/C=N/NC(=O)C2c3ccccc3-c3ccccc32)cc1 | 35.5 µM [rising, single point] | –
CC(C)OCCCNC(=O)CCC(=O)NNc1nc2ccccc2c2nc(-c3ccccc3)nn12 | 14.1 µM [rising, single point] | –
CCc1ccc(OCC(=O)Nc2ccc(-c3nc4ccccc4o3)c(O)c2)cc1 | 5.62 µM [falling, single point] | –
CCCOC(=O)NC(CC)COC(=O)Nc1cccc(C)c1C (configuration not stated) | 35.5 µM [rising, single point] | –
CCOC(=O)c1c(NC(=O)C2CCCN(S(=O)(=O)c3ccccc3)C2)sc2c1CCCC2 (configuration not stated) | 12.6 µM [rising, partial curve] | 3.98 µM [rising, partial curve]
CCCc1nnc(NC(=S)Nc2ccccc2)s1 | 11.2 µM [falling, partial curve] | –
COc1ccc(C(=O)N/N=C/c2ccc(OC)c(CN3CCCc4ccccc43)c2)cc1 | 10 µM [rising, partial curve] | –
Cc1ccn2c(NC(=O)C(C)(C)Oc3ccc(Cl)cc3)c(-c3cccs3)nc2c1 | 14.1 µM [rising, partial curve, poor fit] | –
CCC1CN(C(=O)N2CCC(C(=O)NCCCc3ccccc3)CC2)c2ccccc2O1 (configuration not stated) | 35.5 µM [falling, single point] | 31.6 µM [falling, single point]
O=C(Nc1ccc(Cl)c(S(=O)(=O)Nc2ccccc2Cl)c1)c1cccs1 | 28.2 µM [rising, single point] | –
CCN1/C(=C/c2ccc3cc(C)ccc3[n+]2C)Sc2ccc3sccc3c21 | 20 µM [rising, single point] | –
CC(C)(C)NCC(O)COc1nsnc1N1CCOCC1 (configuration not stated) | – | 0.0631 µM [falling, full curve]
Cc1ccc(NC(=O)COC(=O)c2sccc2C)cc1S(=O)(=O)N1CCOCC1 | 2 µM [rising, full curve, poor fit] | –
O=S(=O)(c1ccc(C2CCCCC2)cc1)N1CCCC1 | 35.5 µM [rising, single point] | 15.8 µM [rising, single point]
CCOC(=O)C1=C(c2cccc(Oc3ccccc3)c2)NC(=S)NC1C (configuration not stated) | 31.6 µM [rising, single point] | 20 µM [rising, single point]
CCCC(=O)Nc1ccc(C(=O)NNC(=S)NC(=O)c2ccc(Br)o2)cc1 | – | 1.58 µM [falling, partial curve, poor fit]
CCNC(=S)Nc1ccc(N2CCCCC2)cc1 | 3.16 µM [falling, single point] | –
CC1(C)Cc2c(C#N)c(N3CCCC3)nc(-c3ccco3)c2CO1 | 17.8 µM [rising, partial curve, poor fit] | –
COc1cccc(-c2nnc(NC(=O)c3ccc(S(=O)(=O)N4CC(C)OC(C)C4)cc3)o2)c1 (configuration not stated) | 0.112 µM [rising, partial curve, poor fit] | –

A portion from the list above, as a working copy:
Structure (SMILES) | AC50 [1] | AC50 [2]
CCc1ccc(OCC(=O)Nc2ccc(-c3nc4ccccc4o3)c(O)c2)cc1 | 5.62 µM [falling, single point] | –
CCCOC(=O)NC(CC)COC(=O)Nc1cccc(C)c1C (configuration not stated) | 35.5 µM [rising, single point] | –

Further records follow:

Structure (SMILES) | AC50 [1] | AC50 [2]
Cc1ccc(C2=NN=C(NC(=O)CSc3nnc4c5ccccc5n(C)c4n3)SC2)cc1 | 17.8 µM [rising, partial curve] | 12.6 µM [rising, partial curve]
Cc1ccc(SCCC(=O)Nc2cccc(N(C)S(C)(=O)=O)c2)cc1 | 35.5 µM [rising, single point] | –
Oc1ccccc1/C=N/Nc1ncc(Br)cn1 | 14.1 µM [rising, partial curve] | –
COc1ccc(OCC(=O)N/N=C(\C)c2ccc(-n3ccnc3)cc2)cc1 | 14.1 µM [rising, partial curve] | –
CCCCN(CCCC)S(=O)(=O)c1ccc(C(=O)Nc2sc3c(c2C(N)=O)CCN(CC)C3)cc1 | 17.8 µM [falling, single point] | –
CCOC(=O)c1nnn(-c2nonc2N)c1-c1ccc(F)cc1 | 1.26 µM [rising, partial curve] | –
COc1cccc(C(=O)Nc2nc(-c3ccccc3)c(-c3ccccc3)o2)c1 | 25.1 µM [rising, single point] | –
CCC(Sc1nc2ccccc2[nH]1)C(=O)Nc1ccc(NC(C)=O)cc1 (configuration not stated) | 1.12 µM [rising, single point] | –
O=C1CCC(=O)N1c1ccc(CSc2nc3ccccc3[nH]2)cc1 | 20 µM [rising, single point] | 11.2 µM [rising, single point]
O=C(CN1C(=O)NC2(CCCCCC2)C1=O)N1CCC(Cc2ccccc2)CC1 | 20 µM [rising, single point] | 14.1 µM [rising, single point]
Cc1cccc(N2CCN(C(=O)CCNC(=O)Cn3ccc4ccccc4c3=O)CC2)c1C | 22.4 µM [rising, single point] | 25.1 µM [rising, single point]
Cc1ccc(OCc2ccc(-c3nc(C#N)c(N4CCN(c5cccc(Cl)c5)CC4)o3)o2)cc1 | 0.00891 µM [falling, full curve, poor fit] | –
C[C@@H](CN(C)C)CN1c2ccccc2CCc2ccccc21 | 0.316 µM [falling, full curve, poor fit] | 0.224 µM [falling, full curve]
O=C(N/N=C/c1ccccc1)c1cc(-c2ccc3c(c2)OCO3)n[nH]1 | 12.6 µM [rising, single point] | –
CC(=O)c1c(C)[nH]c(C(=O)CSc2ncnc3sc(-c4ccccc4)cc23)c1C | 12.6 µM [rising, partial curve] | –
COc1cc(NC(=O)Cn2nc(C(F)(F)F)c3c2CCCC3)cc(OC)c1OC | 35.5 µM [rising, single point] | –
Cc1nc2c([nH]1)c(=O)n(C)c(=O)n2Cc1ccco1 | 6.31 µM [falling, single point] | –
Cc1occc1-c1nnc(SCC(=O)Nc2ccccn2)o1 | – | 12.6 µM [rising, single point]
CCn1ccnc1CN1CCN(CCC(C)C)C(CCO)C1 (configuration not stated) | 6.31 µM [falling, partial curve, poor fit] | –
COc1ccc(NC(=O)/C(Cl)=C(/Cl)S(=O)Cc2ccccc2Cl)cn1 (configuration not stated) | – | 0.708 µM [falling, full curve]

Structure (SMILES) | AC50 [1] | AC50 [2]
Cc1ccc(S(=O)(=O)NC(CN2CCOCC2)=NCCNS(=O)(=O)c2ccccc2)cc1 | 3.16 µM [rising, single point] | –
Cc1c(Cl)cccc1NC(=S)NN | 0.0316 µM [falling, partial curve] | 0.112 µM [falling, full curve]
O=C(NNc1ccccc1Br)C(O)(c1cccc(C(F)(F)F)c1)c1cccc(C(F)(F)F)c1 | 11.2 µM [rising, partial curve] | 6.31 µM [rising, partial curve]
O=C(CC1C(=O)NCCN1CC1CCCCC1)NCc1ccc(Cl)cc1 (configuration not stated) | 35.5 µM [falling, single point] | 35.5 µM [falling, single point]
CN(NS(C)(=O)=O)c1ncc(C(F)(F)F)cc1Cl | 10 µM [falling, partial curve] | –
CC(NC(=O)C1CC12CCC2)c1ccccc1 (configuration not stated) | 0.00891 µM [falling, full curve, poor fit] | –
COc1cc2nc(CN(C)Cc3ccc(C(C)(C)C)cc3)[nH]c(=O)c2cc1OC | 0.112 µM [falling, full curve, poor fit] | –
CC1COc2ccccc2N1S(=O)(=O)c1ccccc1 (configuration not stated) | – | 0.794 µM [rising, full curve, poor fit]
Cc1cc(C)nc(SCC(=O)Nc2ccc(N3CCOCC3)c(Cl)c2)n1 | 3.55 µM [rising, full curve] | 2 µM [rising, full curve, poor fit]
CC1=C(C(=O)Nc2ccccc2Cl)C(c2cccs2)n2ncnc2N1 (configuration not stated) | 35.5 µM [rising, single point] | –
COc1ccccc1NC(=O)c1cc(C(=O)O)ccc1C(=O)O | 11.2 µM [rising, partial curve] | –
O=[N+]([O-])c1ccc(O)c2ncccc12 | 0.891 µM [falling, full curve] | 3.98 µM [falling, full curve, poor fit]
O=C(CN1C2=NCCN2c2ccccc21)c1ccc(Br)s1 | 22.4 µM [rising, single point] | 12.6 µM [rising, single point]
Cc1ccc(NC(=S)N(CCCN2CCCC2)Cc2cccn2Cc2ccc(Cl)cc2)cc1 | 35.5 µM [falling, single point] | 12.6 µM [falling, partial curve]
CCOC(=O)N1CCN(C(=O)COc2ccc(S(=O)(=O)NCc3ccccc3)cc2)CC1 | 14.1 µM [rising, single point] | 11.2 µM [rising, partial curve]
O=S(=O)(NCc1ccccc1)c1ccc2[nH]c3c(c2c1)CCCCC3 | 17.8 µM [falling, partial curve] | 14.1 µM [falling, single point]
C/C(=N\NC(=O)c1ccc(N/N=C(\C)c2ccncc2)cc1)c1ccncc1 | – | 10 µM [falling, partial curve, poor fit]
Cc1ccc(C(=O)/C=C/c2c(C)nn(-c3ccccc3)c2Cl)cc1 | 35.5 µM [falling, single point] | 35.5 µM [falling, single point]
